Measured values: publication PMC11444770, “Moesin contributes to heat shock gene response through direct binding to the Med15 subunit of the Mediator complex in the nucleus” (Open Biology, 2024)

By UniProt entry, the sequences of proteins in these tests, tags left out.
UniProt P46150: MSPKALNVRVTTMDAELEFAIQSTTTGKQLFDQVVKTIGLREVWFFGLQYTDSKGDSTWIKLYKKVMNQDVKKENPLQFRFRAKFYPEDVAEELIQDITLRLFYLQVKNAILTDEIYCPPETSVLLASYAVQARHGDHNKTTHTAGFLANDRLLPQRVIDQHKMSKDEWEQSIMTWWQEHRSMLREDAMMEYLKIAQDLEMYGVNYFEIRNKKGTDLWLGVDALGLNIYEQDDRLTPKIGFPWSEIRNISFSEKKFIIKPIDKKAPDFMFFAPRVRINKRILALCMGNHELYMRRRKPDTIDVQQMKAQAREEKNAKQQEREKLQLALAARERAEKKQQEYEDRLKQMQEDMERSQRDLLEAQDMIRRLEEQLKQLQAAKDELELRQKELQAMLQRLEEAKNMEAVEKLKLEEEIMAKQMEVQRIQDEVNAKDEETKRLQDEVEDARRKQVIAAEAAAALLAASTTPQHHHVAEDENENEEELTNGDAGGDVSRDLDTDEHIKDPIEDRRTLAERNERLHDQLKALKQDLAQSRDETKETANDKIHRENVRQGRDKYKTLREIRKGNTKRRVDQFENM

Columns and labels:
[1] = target: Moesin-GFP (Drosophila melanogaster) (UniProt P46150); test: affinity purification with mass spectrometry; nuclear protein fraction of S2R+ cells expressing Moesin-GFP or Moesin-HA; anti-GFP or anti-HA antibody-coupled magnetic beads; on-column trypsin digest, LC-MS/MS; score from six experiments (three for each tag)
[2] = target: Moesin-HA (Drosophila melanogaster) (UniProt P46150); test: as above

binding [1] | binding [2] | Binder
binds | binds | Med23 (endogenous, S2R+ nuclear fraction) (protein, UniProt Q9W1X7 1-1439) METQVIDTVNEFLKVDSLDEAFVSVIVFKPNTEQERATRFANDLVTAFGNVAQENREQVLRLYLLRAAGASGYHIKVLMAALVKLVDAHVITARMLCDKVLMCEKLDFEHRTFWIESFRLIKRVIVQVDYKGVREIMKVCRDKAQWFPLNVNVTYMPQLLAVEDILRFIFDRNNCLLPAYFIANEIMRPFPYHWKLNRLMTDFVEEFRTTAQMVSIIGHASMLPIVEHFGYADHMMNSWRLDHNTLKFNFKGSLPYEPELLEEQKPLLRYVLEQPYSREMVSQMLNLQKHQKQRYNALEEQLVNLIVQAMEMTEANDATAGSGFNSSDEQITPYEWMWLHLSSQLIYFVLFQFVSFMHIVLALHEKLSKLELRKGRDQLMWILLQFISGSIQKNPITNFLPVFRLFDLLYPELEPLKLPDINKSSMVRHMAPICVWIHLMKKARVENMNITRPLPIALKNHYDFLQHLVTANTMMNMTLGNDFRIILICNAYSTNQEYFGRPMGLLLDALNGTSKSPNGGQIPAVTFSVTVLDSLTVHSKMSLIHSFVTQMLKQAQSKGQVPAAALLETYARLLVYTEIESLGIKGFLSQLMPTVFKNHAWAMLHTLMEMFSYRLHHVPTHYRVQLLSLLHSLSSVPQTNKMQLNLCFESTALRLITSIGSAEFQPQFSRYFNDKSPGAVASNESEELNRVLILTLARSMHVHGGGDEMQGWCKDFLSNIIQHTPHSWPMHSLACFPPALNEYFTQNNQPPENKQQLKKAVEEEYRTWTSMTNENDIIAHFLRPTTNPLFLCLLFKIIWETENISPVAYKILEGISARALSTHLRKFCDYLVAEVASSSDGRDFIHKCVDTINNMIWKFNVVTIDRVVLCLALRTHEGNEAQVCFLIIQLLLLKASELRNRVQEFCKDNNPDHWKQSNWQDKHLSFHQKYPEKFALDESASQIPLPVYFSNVCLRFLPVLDVVVHRFIELTITNVHQILGFILDHLSILYKFHDRPITYLYNTLHYYERILRDRPALKKKLVGAITSAFSEIRPPNWSVSEPYKVYLQSQDSLWTPELSYYMSLIRRLADTISGKNVFYSTDWRFNEFPNAPTHALYVTCVELLGLPVAPPLVASNLIDVIVSGYAVIPQKDIHSYINAVGIVLAALPEPYWSGIYDRLQDMLNTPNMLNWTYRFNAFELFNFKTVREAMLEKTYAVVLAVAHSVFHHMGAFKLAAMTRYLKEKLKPCVRTEQQLLYLCHVFGPFLQRIELEKPNAVAGIAVLLYEILEIVDKHHGPKPLQYMDQICDFLYHIKYIHVGNIIKNESEAIIKRLRPLLQMRLRFITHLNLEDIHTEKINDNTSNNAITSQTQSPMQTQHQQQPQQPHQQQQQQQQQQQQQQQQQQQQQQMQQQQINAVQTTSVPLGSGGNLQQQQQINQQQQMYMQHMQQHQHMQNMRHN
binds | binds | Med6 (endogenous, S2R+ nuclear fraction) (protein, UniProt Q8MSX2 1-249) MASRQMTNDHLRLSWHDTQMMATLSPQTVMDYFCRKSNPFYDHMCNNETVRMQRLGPEHLHNMIGLEYILLHVAEPILYVIRKQHRHNPSEATPIADYYIIGGTVYKAPDLANVINSRILNTVVNLQSAFEEASSYARYHPNKGYTWDFSSNKVFSDRSKSDKKDANSAKDENSGTLFQKQRVDMLLAELLRKFPPPIPPMLQNLQQPPPAGDDLNTARNASEMNNATGPLDIKTEGVDMKPPPEKKSK
binds | binds | Med15 (endogenous, S2R+ nuclear fraction) (protein, UniProt Q9Y149 1-749) MTEDWQSQKFRQNVISKIHDLLPPNAQDQTKNAGVMENHIFRKSRTKDEYLGLVAKLFMHYKDMSRKSQQQQQQQQQQGGPPPNAEMGGGQNMMQDPLNALQNLASQGNRNPQMMPMGAGGGAPVPGGPGTASNLLQSLNQQRPGQQQMQPMSNIRGQMPMGAGGAGAQQMMQVQQMQQGGNAPGVMNVMGAGGGQNQGQIVGNPGQQMGVGVGMPNQMVGPGPNSGPAVGGAGGPNAAPGAGGPGPNQMQGGPMNVNAMQQMPPMQQIQQNQLGMGMNPMMRMGQGNGMGGPQGMPGQGMQGMPQGPHNVVGGPAGQQQVGGAGLPPNAVQQGGMNPMGGMGVNMPPNLQQKPNMPMGQAGQMFPGNRGGVGVGGQQPGQPFMRSSPSPADAQQLQQQAQLQQMQQQQQQLVVGNQTPTQQPPTPQMPTPNMIPSPALVPQSSPQMMQMQNSQRNIRQQSPSASINTPGQVTGNSPFNPQEEALYREKYKQLTKYIEPLKRMLAKISNDGTNVEKMTKMSKLLEILCNPTQRVPLETLLKCEKALEKMDLISYSGQQFGKSSNPLLEVINTTLQSPVANHTLYRTFRPTLELLFGTDITAPVPAKRPRVEEKSTSFEQEVPHVLQGEIARLDTKFKVKLDTTSQINNKAIRLICCLDDKRLPSVPPVSVSVPEEYPWQAPDCSLAEQEYSATPFLQTVQQALIARISKLPKNYSLSHLLDTWEMAVRQACSPQSKPRAVCELSTLLGV

Results are given in words; binding and its absence hold for the method and conditions named. In cells and extracts the contact can be indirect. A yes stands for co-enrichment or nearness to the bait. Other partners may have been found.
